# From PubChem BioAssay (NCATS)
# Values joined by “and” are separate entries in the source; they are usually repeats but may differ in a detail not shown here. Equal entries are not always repeated. This is one part of the list. Shown are side measurements of this screen, not its main read-out; they come without a call. Compounds called inactive in the main read-out are mostly missing here. For part of these data: The note in brackets gives the kind of curve behind each potency; many fits are weak.
# Experiments:
# [1] = Validation of Assay for Modulators of Lamin A Splicing (AID 1459); conditions: Lamin A splicing dual RFP/GFP fluorescence reporter, ratio
# Procedure, shortened: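 Dual-reporter HeLa S3 line (lamin A-EGFP minigene, DsRed2) treated with compounds 48 hrs, 0.5% DMSO final. Endpoint: EGFP/DsRed2 total intensity ratio from laser-scanning microplate cytometry.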
# [2] = qHTS Assay for Lipid Storage Modulators (AID 1519); conditions: Drosophila S3 cells, BODIPY lipid droplet/cell ratio, laser cytometry, cells loaded with oleic acid
# Procedure, shortened: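 Cells seeded at 5,000 per well were treated with compounds over a concentration series and loaded with oleic acid (400 uM, as added). Lipid droplet fluorescence (488 nm excitation, 500-530 nm channel) was read by laser-scanning cytometry and normalized to 20 uM Triacsin C.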
# [3] = qHTS Assay for Modulators of Human Peripheral Myelin Protein 22 (PMP22) Expression/Activity (AID 1967); conditions: Cell-based PMP22 reporter, dual-color luciferase ratio
# Procedure, shortened: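 Engineered MSC80 cells, Pmp22-promoter green and EF-alpha red luciferase reporters; 24h compound treatment at 37 °C. Concentration-response fits on green, red and ratio signals, each overlap-corrected, with %Activity normalized to untreated wells.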
# [4] = qHTS for identification of novel therapeutic agents for treatment of microphthalmiaassociated transcription factor (MiT) renal cell carcinoma (RCC) (AID 1963991); conditions: CellTiter-Glo, 48 h; for z-score: stronger effect = lower value
# Procedure, shortened: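 Three TFE3-fusion RCC cell lines (UOK109, UOK124, UOK145), 500 cells/well, were exposed to the 1912-compound MIPE 4.0 library for 48 hours at 37 C. Viability was read by CellTiter-Glo luminescence, normalised to DMSO (100%) and empty wells (0%), with 11-concentration curve fits.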
# [5] = qHTS Validation Assay to Find Inhibitors of Chronic Active B-Cell Receptor Signaling (AID 485345); conditions: ABC-DLBCL cells, chronic BCR signaling reporter
# Procedure, shortened: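 Read-out: ratio of filter-corrected green (IkappaBalpha fusion) to red (native) luciferase signal in doxycycline-induced TMD8 cells after 4 h at 37C. Titration spanned 46 uM–3 nM; Data were normalised to basal cells and 10 uM MG-132 wells.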
# [6] = qHTS assay for small molecule antagonists of androgen receptor signaling (AID 588516); conditions: AR-UAS-bla HEK293, beta-lactamase ratio, antagonist mode, 16 h
# Procedure, shortened: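 Cells were plated and incubated 5 h, compounds added in titration, then R1881 (10 nM final) as agonist. After 16 h at 37 C, CCF4 substrate was loaded for 2 h at room temperature and fluorescence measured.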
# [7] = qHTS assay for small molecule antagonists of peroxisome proliferator-activated receptor delta signaling (AID 588535); conditions: HEK293T PPARd-UAS-bla, beta-lactamase FRET ratio, 18 h; 460 nm channel;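 further: cells co-treated with a PPAR-delta agonist as stimulator during compound exposure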
# Procedure, shortened: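 HEK293T PPAR-delta-UAS-bla cells, 4000/well, 2% charcoal/dextran FBS; 5 h 37 C; cpd titration; 18 h 37 C; CCF4 2 h RT; FI 460/530 nm; Hill fit → IC50, efficacy.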
# [8] = qHTS assay for small molecule agonists of retinoid X receptor alpha signaling (AID 588544); conditions: HEK293T RXRa-UAS-bla, beta-lactamase reporter, 18 h; 530 nm emission
# [9] = qHTS assay for small molecule antagonists of retinoid X receptor alpha signaling (AID 588546); conditions: HEK293T RXRa-UAS-bla, beta-lactamase ratio, antagonist mode; measured here: W530 green channel, cytotoxicity proxy;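 further: cells stimulated with 9-cis-retinoic acid as agonist; on the % scale 0 is the no-effect control and ±100 the full control effect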
# Procedure, shortened: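 Beta-lactamase reporter inhibition, read as CCF4 fluorescence ratio (ex 405, em 460/530 nm) after 2 h at RT. HEK293T UAS-bla cells, 2500/well, were stimulated with 9-cis-RA at 500 or 100 nM final alongside test compound for 18 h at 37 C.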
# [10] = S16 Schwann cell PMP22 intronic element beta-lactamase assay (AID 624044); conditions: S16 rat Schwann cells, PMP22 element beta-lactamase FRET, 24 h; measured here: 460 nm blue channel
# Procedure, shortened: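 Rat S16 Schwann cells with beta-Lac driven by a PMP22 intronic element, compound-treated 24 h at 37 °C. LiveBLAzer FRET B/G read: 460 nm normalized to potassium clavulanate vs DMSO; 535 nm FRET as viability; concentration-effect curves classified.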
# [11] = A High-Content qHTS Against Drug Library for the Identification of Small Molecules that Inhibit DYT1 Early Onset Primary Dystonia-Associated Cell Pathology (AID 1645839); conditions: HEK293 Flp-In EGFP-delE TorsinA, punctate imaging, 48 h; measured here: cell count cytotoxicity
# Procedure, shortened: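 In this high-content image screen, delE TorsinA mislocalization in inducible Flp-In 293 cells is scored as %pathology, with cell count serving as the counterscreen. Compound exposure lasts 48 h under tetracycline induction in reduced-serum medium.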
# [12] = Nrf2 qHTS screen for inhibitors: Validation (AID 493153); conditions: A549 ARE-Fluc reporter, 18-24 h; AC50: CellTiter-Fluor fluorescence read, measured here: cytotoxicity CellTiter-Fluor AC50; viability change: measured here: cytotoxicity max response
# Procedure, shortened: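 A549 cells carrying ARE-firefly luciferase reporter, 5000 cells/well in 5% FBS OPTI-MEM, treated with compound over a concentration series for 18-24 h at 37 C. Luciferase luminescence gave Nrf2 activity; CellTiter-Fluor fluorescence gave viability.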
# [13] = qHTS Assay for Inhibitors of PDE-IV (AID 607); conditions: HEK293 ACTOne CNG channel cells, membrane potential fluorescence; measured here: parental cell counter-screen
# Procedure, shortened: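 ACTOne HEK293 cells carry a modified cAMP-gated CNG channel and express endogenous PDE4; plated 1000 cells/well, compounds up to 22.9 uM final. Membrane-potential dye fluorescence (ex 535/em 590) was read; parental cells received 10 uM forskolin + 100 uM RO 20-1724.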
# [14] = measured here: cell count channel max response
# [15] = measured here: cell number channel AC50
# [16] = measured here: lipid (BODIPY) channel AC50
# [17] = measured here: lipid channel max response
# [18] = measured here: green reporter channel AC50, mouse Pmp22 promoter in mouse Schwann cells
# [19] = measured here: red reporter channel AC50, EF-alpha promoter control reporter in MSC80 mouse Schwann cells
# [20] = TFE3-RCC UOK109 viability, measured here: UOK109 Z-AUC
# [21] = TFE3-RCC viability, measured here: UOK124 Z-AUC
# [22] = TFE3-RCC viability, measured here: UOK145 Z-AUC
# [23] = TFE3-RCC viability, measured here: UOK145 cell viability
# [24] = measured here: CBR control luciferase (viability counter)
structure (smiles),measurement,setting,value
O=c1cc(N2CCOCC2)oc2c(-c3ccccc3)cccc12,AC50,[1]; measured here: GFP channel,"7.08 µM [falling, partial curve, poor fit]"
same,max response,[2]; [14],88.4% and 32.8%
same,AC50,[2]; [15],"3.55 µM [rising, full curve] and 11.2 µM [falling, partial curve, poor fit]"
same,AC50,[2]; [16],"10 µM [falling, partial curve, poor fit]"
same,max response,[2]; [17],120% and 32.9%
same,AC50,[3]; [18],"33.8 µM [falling, partial curve]"
same,AC50,[3]; [19],"12 µM [falling, partial curve]"
same,z-score,[4]; [20],-0.816
same,z-score,[4]; [21],-1.77
same,z-score,[4]; [22],0.153
same,AC50,[4]; [23],"18.7 µM [falling, partial curve]"
NCCNS(=O)(=O)c1cccc2cnccc12,AC50,[1]; measured here: RFP channel,"14.1 µM [falling, single point]"
same,max response,[2]; [14],30.3% and 43.1%
same,AC50,[2]; [15],"15.8 µM [rising, full curve, poor fit] and 39.8 µM [rising, single point]"
same,AC50,[2]; [16],"20 µM [rising, partial curve, poor fit] and 39.8 µM [rising, single point]"
same,max response,[2]; [17],46.1% and 45.7%
same,AC50,[3]; [18],"37.9 µM [rising, single point]"
O=c1c(-c2ccc(O)cc2)coc2cc(O)cc(O)c12,AC50,[1]; measured here: GFP channel,"28.2 µM [falling, single point]"
same,max response,[2]; [14],-10.5% and -64.6%
same,AC50,[2]; [15],"39.8 µM [falling, single point]"
same,AC50,[2]; [16],"12.6 µM [falling, partial curve] and 39.8 µM [falling, single point]"
same,max response,[2]; [17],-46.7% and -68%
same,AC50,[3]; [18],"12 µM [falling, partial curve]"
same,AC50,[3]; [19],"16.9 µM [falling, full curve]"
same,AC50,[5]; [24],"4.61 µM [rising, full curve, poor fit]"
same,AC50,[6]; measured here: W460 blue channel fit,"20 µM [falling, partial curve, poor fit]"
same,AC50,"[6]; measured here: W530 green channel, cytotoxicity/artifact","3.55 µM [rising, full curve, poor fit]"
same,max response,[7],6.8% and 1.05%
same,max response,[8],27.6% and 30.9%
same,max response,[9],36.3%
same,AC50,[10],"25.1 µM [falling, partial curve]"
same,AC50,[11],"0.562 µM [falling, full curve, poor fit]"
same,z-score,[4]; [20],0.52
same,z-score,[4]; [21],-0.488
same,z-score,[4]; [22],-0.234
same,AC50,[4]; [23],"20.9 µM [falling, partial curve, poor fit]"
CC(C)[N+](C)(CCOC(=O)C1c2ccccc2Oc2ccccc21)C(C)C,AC50,[1]; measured here: GFP channel,"22.4 µM [rising, single point]"
same,max response,[2]; [14],33% and 32.5%
same,AC50,[2]; [15],"39.8 µM [rising, single point]"
same,AC50,[2]; [16],"39.8 µM [rising, single point]"
same,max response,[2]; [17],55.4% and 32.7%
same,AC50,[3]; [18],"5.36 µM [rising, full curve, poor fit]"
CC(C)C[C@H](NC(=O)[C@@H](O)[C@H](N)Cc1ccccc1)C(=O)O,AC50,[1]; measured here: GFP channel,"2.82 µM [rising, full curve, poor fit]"
same,max response,[2]; [14],59.8%
same,max response,[2]; [17],58.4%
same,AC50,[3]; [19],"15.1 µM [rising, partial curve]"
same,viability change,[12],-18.9%
same,z-score,[4]; [20],0.828
same,z-score,[4]; [21],0.283
same,AC50,"[4]; TFE3-RCC viability, measured here: UOK124 cell viability","26.4 µM [falling, partial curve]"
same,z-score,[4]; [22],0.278
same,AC50,[4]; [23],"29.6 µM [falling, single point]"
CCCCCCCC/C=C\CCCCCCCC(=O)NCCO,AC50,[1]; measured here: GFP channel,"31.6 µM [rising, single point]"
same,max response,[2]; [14],56%
same,AC50,[2]; [15],"39.8 µM [rising, partial curve, poor fit]"
same,AC50,[2]; [16],"35.5 µM [rising, partial curve, poor fit]"
same,max response,[2]; [17],57.5%
same,AC50,[3]; [18],"95.3 µM [falling, single point]"
CC(C)(CO)Cc1cc(C(C)(C)C)c(O)c(C(C)(C)C)c1,AC50,[13],"12.6 µM [rising, partial curve]"
same,AC50,[1]; measured here: GFP channel,"35.5 µM [falling, single point]"
same,max response,[2]; [14],32.5%
same,AC50,[2]; [15],"5.62 µM [rising, full curve, poor fit]"
same,AC50,[2]; [16],"6.31 µM [rising, full curve, poor fit]"
same,max response,[2]; [17],39.2%
same,AC50,[3]; [18],"95.3 µM [falling, single point]"
same,AC50,[3]; [19],"95.3 µM [falling, single point]"
O=C1NC(=O)C(c2ccccc2[N+](=O)[O-])=C1Nc1ccc(O)c(Cl)c1,AC50,[1]; measured here: GFP channel,"14.1 µM [rising, partial curve, poor fit]"
same,max response,[2]; [14],44.7%
same,AC50,[2]; [15],"15.8 µM [rising, full curve, poor fit]"
same,AC50,[2]; [16],"20 µM [rising, partial curve, poor fit]"
same,max response,[2]; [17],70.3%
same,AC50,[3]; [18],"33.8 µM [falling, partial curve, poor fit]"
same,AC50,[3]; [19],"60.1 µM [falling, partial curve, poor fit]"
same,z-score,[4]; [20],-0.627
same,z-score,[4]; [21],0.456
same,z-score,[4]; [22],-0.739
same,AC50,[4]; [23],"1.66 µM [falling, partial curve, poor fit]"
c1cc(CN2CCCCC2)cc(OCCCNc2nc3ccccc3s2)c1,AC50,[13],"25.1 µM [rising, single point]"
same,AC50,[1]; measured here: RFP channel,"2.51 µM [falling, partial curve]"
same,max response,[2]; [14],63.6%
same,AC50,[2]; [15],"35.5 µM [rising, partial curve, poor fit]"
same,AC50,[2]; [16],"39.8 µM [rising, partial curve, poor fit]"
same,max response,[2]; [17],74.6%
same,AC50,[3]; [18],"30.1 µM [falling, partial curve]"
same,AC50,[3]; [19],"30.1 µM [falling, partial curve]"
same,AC50,[5]; measured here: CBG/CBR ratio read-out,"23.1 µM [falling, single point]"
same,AC50,[5]; [24],"20.6 µM [falling, single point]"

# Given with tabs: part of the list above
structure (smiles)	measurement	setting	value
O=c1c(-c2ccc(O)cc2)coc2cc(O)cc(O)c12	AC50	[2]; [15]	39.8 µM [falling, single point]
same	AC50	[2]; [16]	12.6 µM [falling, partial curve] and 39.8 µM [falling, single point]
same	max response	[2]; [17]	-46.7% and -68%
same	AC50	[3]; [18]	12 µM [falling, partial curve]
same	AC50	[3]; [19]	16.9 µM [falling, full curve]
same	AC50	[5]; [24]	4.61 µM [rising, full curve, poor fit]
same	AC50	[6]; measured here: W460 blue channel fit	20 µM [falling, partial curve, poor fit]
same	AC50	[6]; measured here: W530 green channel, cytotoxicity/artifact	3.55 µM [rising, full curve, poor fit]
same	max response	[7]	6.8% and 1.05%
same	max response	[8]	27.6% and 30.9%
same	max response	[9]	36.3%
same	AC50	[10]	25.1 µM [falling, partial curve]
same	AC50	[11]	0.562 µM [falling, full curve, poor fit]
same	z-score	[4]; [20]	0.52
same	z-score	[4]; [21]	-0.488
same	z-score	[4]; [22]	-0.234
same	AC50	[4]; [23]	20.9 µM [falling, partial curve, poor fit]
CC(C)[N+](C)(CCOC(=O)C1c2ccccc2Oc2ccccc21)C(C)C	AC50	[1]; measured here: GFP channel	22.4 µM [rising, single point]
same	max response	[2]; [14]	33% and 32.5%
